B1: Zfp521 (protein, UniProt Q6KAS7 1-1311)
chain: MSRRKQAKPRSLKDPNCKLEDKIEDGEAVDCKKRPEDGEELEEDAVHSCDSCLQVFESLSDITEHKIHQCQLTDGVDVEDDPSCSWPASSPSSKDQTSPSHGEGCDFGEEEGGPGLPYPCQFCDKSFSRLSYLKHHEQSHSDKLPFKCTYCSRLFKHKRSRDRHIKLHTGDKKYHCSECDAAFSRSDHLKIHLKTHTSNKPYKCAVCRRGFLSSSSLHGHMQVHERNKDGSQSGSRMEDWKMKDTQKCSQCEEGFDFPEDLQKHIAECHPECSPNEDRAALQCMYCHELFVEETSLMNHIEQVHGGEKKNSCSICSESFLTVEELYSHMDSHQQPESCNHSNSPSLVTVGYTSVSSTTPDSNLSVDSSTMVEAAPPIPKSRGRKRAAQQTSDMTGPSSKQAKVTYSCIYCNKQLFSSLAVLQIHLKTMHLDKPEQAHICQYCLEVLPSLYNLNEHLKQVHEAQDPGLIVSAMPAIVYQCNFCSEVVNDLNTLQEHIRCSHGFANPAAKDSNAFFCPHCYMGFLTDSSLEEHIRQVHCDLSGSRFGSPVLGTPKEPVVEVYSCSYCTNSPIFNSVLKLNKHIKENHKNIPLALNYIHNGKKSRALSPLSPVAIEQTTLKMMQTVGGGPARASGEYICNQCGAKYTSLDSFQTHLKTHLDTVLPKLTCPQCNKEFPNQESLLKHVTIHFMITSTYYICESCDKQFTSVDDLQKHLLDMHTFVFFRCTLCQEVFDSKVSIQLHLAVKHSNEKKVYRCTSCNWDFRNETDLQLHVKHNHLENQGKVHKCIFCGESFGTEVELQCHITTHSKKYNCRFCSKAFHAVILLEKHLREKHCVFETKTPNCGTNGASEQVQKEEAELQTLLTNSQESHNSHDGSEEDVDSSEPMYGCDICGAAYTMETLLQNHQLRDHNIRPGESAIVKKKAELIKGNYKCNVCSRTFFSENGLREHMQTHLGPVKHYMCPICGERFPSLLTLTEHKVTHSKSLDTGNCRICKMPLQSEEEFLEHCQMHPDLRNSLTGFRCVVCMQTVTSTLELKIHGTFHMQKTGNGSSVQTTGRGQHVQKLYKCASCLKEFRSKQDLVKLDINGLPYGLCAGCVNLSKSSSPGLSLPPGASRPGLGQNESLSAMEGKGKAGGLKTRCSSCNVKFESESELQNHIQTVHRELVPDANSTQLKTPQVSPMPRISPSQSDEKKTYQCIKCQMVFYNEWDIQVHVANHMIDEGLNHECKLCSQTFDSPAKLQCHLIEHSFEGMGGTFKCPVCFTVFVQANKLQQHIFSAHGQEDKIYDCTQCPQKFFFQTELQNHTMTQHSS
B2: Zfp423 (endogenous, embryonic cortex) (protein, UniProt Q80TS5 1-1292)
chain: MSRRKQAKPRSVKVEEGEASDFSLAWDSSVAAAGGLEGEPECDRKTSRALEDRNSVTSQEERNEDDEDVEDESIYTCDHCQQDFESLADLTDHRAHRCPGDGDDDPQLSWVASSPSSKDVASPTQMIGDGCDLGLGEEEGGTGLPYPCQFCDKSFIRLSYLKRHEQIHSDKLPFKCTFCSRLFKHKRSRDRHIKLHTGDKKYHCHECEAAFSRSDHLKIHLKTHSSSKPFKCSVCKRGFSSTSSLQSHMQAHKKNKEHLAKSEKEAKKDDFMCDYCEDTFSQTEELEKHVLTLHPQLSEKADLQCIHCPEVFVDESTLLAHIHQAHANQKHKCPMCPEQFSSVEGVYCHLDSHRQPDSSNHSVSPDPVLGSVASMSSATPDSSASVERGSTPDSTLKPLRGQKKMRDDGQSWPKVVYSCPYCSKRDFTSLAVLEIHLKTIHADKPQQSHTCQICLDSMPTLYNLNEHVRKLHKSHAYPVMQFGNISAFHCNYCPEMFADINSLQEHIRVSHCGPNANPPDGNNAFFCNQCSMGFLTESSLTEHIQQAHCSVGSTKLESPVVQPTQSFMEVYSCPYCTNSPIFGSILKLTKHIKENHKNIPLAHSKKSKAEQSPVSSDVEVSSPKRQRLSGSANSISNGEYPCNQCDLKFSNFESFQTHLKLHLELLLRKQACPQCKEDFDSQESLLQHLTVHYMTTSTHYVCESCDKQFSSVDDLQKHLLDMHTFVLYHCTLCQEVFDSKVSIQVHLAVKHSNEKKMYRCTACNWDFRKEADLQVHVKHSHLGNPAKAHKCIFCGETFSTEVELQCHITTHSKKYNCRFCSKAFHAVILLEKHLREKHCVFDAAAENGTANGVPPTSTKKAEPADLQGMLLKNPEAPNSHEASEDDVDASEPMYGCDICGAAYTMEVLLQNHRLRDHNIRPGEDDGSRKKAEFIKGSHKCNVCSRTFFSENGLREHLQTHRGPAKHYMCPICGERFPSLLTLTEHKVTHSKSLDTGTCRICKMPLQSEEEFIEHCQMHPDLRNSLTGFRCVVCMQTVTSTLELKIHGTFHMQKLAGSSAASSPNGQGLQKLYKCALCLKEFRSKQDLVRLDVNGLPYGLCAGCMARSANGQVGGLAPPEPADRPCAGLRCPECNVKFESAEDLESHMQVDHRDLTPETSGPRKGAQTSPVPRKKTYQCIKCQMTFENEREIQIHVANHMIEEGINHECKLCNQMFDSPAKLLCHLIEHSFEGMGGTFKCPVCFTVFVQANKLQQHIFAVHGQEDKIYDCSQCPQKFFFQTELQNHTMSQHAQ

Amino acid sequences for entries named in this document (tags omitted).
UniProt A2A9A2: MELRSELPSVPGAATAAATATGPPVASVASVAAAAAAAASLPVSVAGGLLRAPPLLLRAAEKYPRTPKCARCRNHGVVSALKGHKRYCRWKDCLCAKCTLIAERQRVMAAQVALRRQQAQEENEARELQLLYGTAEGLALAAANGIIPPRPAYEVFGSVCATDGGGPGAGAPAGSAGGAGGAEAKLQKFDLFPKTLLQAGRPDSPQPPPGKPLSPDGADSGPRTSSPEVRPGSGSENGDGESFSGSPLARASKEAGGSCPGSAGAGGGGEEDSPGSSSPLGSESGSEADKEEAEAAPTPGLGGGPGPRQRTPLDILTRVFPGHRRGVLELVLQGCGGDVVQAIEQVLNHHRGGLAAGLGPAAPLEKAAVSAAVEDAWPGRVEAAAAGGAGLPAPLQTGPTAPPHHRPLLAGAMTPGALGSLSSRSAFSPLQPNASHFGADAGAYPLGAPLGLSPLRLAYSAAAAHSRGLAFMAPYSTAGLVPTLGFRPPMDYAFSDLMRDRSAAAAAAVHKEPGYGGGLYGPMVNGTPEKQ
UniProt B1AWL2: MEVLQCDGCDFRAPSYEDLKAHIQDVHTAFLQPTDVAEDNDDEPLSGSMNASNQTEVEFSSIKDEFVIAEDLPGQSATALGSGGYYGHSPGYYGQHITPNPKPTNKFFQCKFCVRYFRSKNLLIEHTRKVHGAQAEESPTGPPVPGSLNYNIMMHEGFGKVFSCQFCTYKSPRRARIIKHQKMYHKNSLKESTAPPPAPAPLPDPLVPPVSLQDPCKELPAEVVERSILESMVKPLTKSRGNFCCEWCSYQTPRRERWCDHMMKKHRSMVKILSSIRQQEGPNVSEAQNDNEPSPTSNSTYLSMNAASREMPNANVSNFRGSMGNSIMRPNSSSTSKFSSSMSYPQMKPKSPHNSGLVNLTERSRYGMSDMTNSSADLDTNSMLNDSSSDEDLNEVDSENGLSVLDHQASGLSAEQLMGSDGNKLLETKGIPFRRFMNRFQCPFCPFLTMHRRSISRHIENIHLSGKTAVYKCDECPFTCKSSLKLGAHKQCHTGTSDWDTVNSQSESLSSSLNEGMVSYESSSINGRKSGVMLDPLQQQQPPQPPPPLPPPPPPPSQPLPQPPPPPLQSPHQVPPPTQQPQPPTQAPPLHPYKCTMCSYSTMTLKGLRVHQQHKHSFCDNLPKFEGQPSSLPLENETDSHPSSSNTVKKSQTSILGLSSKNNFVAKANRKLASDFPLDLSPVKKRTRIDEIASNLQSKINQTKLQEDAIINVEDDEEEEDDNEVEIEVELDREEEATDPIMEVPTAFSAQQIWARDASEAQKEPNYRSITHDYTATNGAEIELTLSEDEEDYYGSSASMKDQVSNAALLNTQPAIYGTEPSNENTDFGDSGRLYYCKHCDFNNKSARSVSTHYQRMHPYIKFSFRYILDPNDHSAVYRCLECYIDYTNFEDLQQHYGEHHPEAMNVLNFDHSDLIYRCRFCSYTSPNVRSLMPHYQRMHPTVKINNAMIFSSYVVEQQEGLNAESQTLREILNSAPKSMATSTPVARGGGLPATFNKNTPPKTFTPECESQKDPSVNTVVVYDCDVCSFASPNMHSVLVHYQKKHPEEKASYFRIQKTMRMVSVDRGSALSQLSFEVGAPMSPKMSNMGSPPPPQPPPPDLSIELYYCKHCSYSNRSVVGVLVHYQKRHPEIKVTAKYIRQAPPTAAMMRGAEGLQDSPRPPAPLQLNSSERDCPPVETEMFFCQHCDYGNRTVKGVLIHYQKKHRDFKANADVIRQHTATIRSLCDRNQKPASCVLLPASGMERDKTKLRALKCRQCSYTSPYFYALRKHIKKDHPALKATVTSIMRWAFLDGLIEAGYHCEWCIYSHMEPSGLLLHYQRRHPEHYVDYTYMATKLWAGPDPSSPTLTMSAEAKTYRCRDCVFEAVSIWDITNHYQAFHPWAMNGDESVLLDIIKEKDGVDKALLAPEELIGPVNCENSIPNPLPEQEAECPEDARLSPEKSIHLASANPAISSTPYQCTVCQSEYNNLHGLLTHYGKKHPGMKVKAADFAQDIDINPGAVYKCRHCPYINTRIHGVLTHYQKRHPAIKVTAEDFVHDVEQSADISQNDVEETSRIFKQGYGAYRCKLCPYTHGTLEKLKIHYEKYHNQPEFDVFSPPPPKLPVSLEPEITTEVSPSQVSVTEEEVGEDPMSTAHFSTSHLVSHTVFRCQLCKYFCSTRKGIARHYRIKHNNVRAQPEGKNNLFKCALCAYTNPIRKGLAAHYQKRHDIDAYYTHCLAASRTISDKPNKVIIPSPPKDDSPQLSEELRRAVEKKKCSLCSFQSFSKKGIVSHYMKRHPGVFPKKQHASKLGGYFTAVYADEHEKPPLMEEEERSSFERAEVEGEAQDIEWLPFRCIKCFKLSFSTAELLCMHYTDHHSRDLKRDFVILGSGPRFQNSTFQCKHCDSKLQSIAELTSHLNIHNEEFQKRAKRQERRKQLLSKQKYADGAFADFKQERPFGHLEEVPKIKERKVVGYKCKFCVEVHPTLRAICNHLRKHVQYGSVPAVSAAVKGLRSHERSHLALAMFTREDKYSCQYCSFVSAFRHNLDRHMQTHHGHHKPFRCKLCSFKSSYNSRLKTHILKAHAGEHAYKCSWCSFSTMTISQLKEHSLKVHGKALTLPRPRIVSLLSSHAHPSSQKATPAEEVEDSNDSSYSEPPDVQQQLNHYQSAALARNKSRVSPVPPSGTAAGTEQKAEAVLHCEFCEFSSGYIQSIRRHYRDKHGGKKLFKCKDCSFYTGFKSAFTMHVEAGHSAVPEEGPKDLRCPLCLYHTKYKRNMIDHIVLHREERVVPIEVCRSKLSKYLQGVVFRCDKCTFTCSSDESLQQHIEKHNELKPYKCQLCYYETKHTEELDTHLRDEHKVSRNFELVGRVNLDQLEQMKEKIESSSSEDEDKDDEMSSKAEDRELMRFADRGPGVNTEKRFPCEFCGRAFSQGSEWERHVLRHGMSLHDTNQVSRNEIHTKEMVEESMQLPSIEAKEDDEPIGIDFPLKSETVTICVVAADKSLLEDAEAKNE
UniProt P70288: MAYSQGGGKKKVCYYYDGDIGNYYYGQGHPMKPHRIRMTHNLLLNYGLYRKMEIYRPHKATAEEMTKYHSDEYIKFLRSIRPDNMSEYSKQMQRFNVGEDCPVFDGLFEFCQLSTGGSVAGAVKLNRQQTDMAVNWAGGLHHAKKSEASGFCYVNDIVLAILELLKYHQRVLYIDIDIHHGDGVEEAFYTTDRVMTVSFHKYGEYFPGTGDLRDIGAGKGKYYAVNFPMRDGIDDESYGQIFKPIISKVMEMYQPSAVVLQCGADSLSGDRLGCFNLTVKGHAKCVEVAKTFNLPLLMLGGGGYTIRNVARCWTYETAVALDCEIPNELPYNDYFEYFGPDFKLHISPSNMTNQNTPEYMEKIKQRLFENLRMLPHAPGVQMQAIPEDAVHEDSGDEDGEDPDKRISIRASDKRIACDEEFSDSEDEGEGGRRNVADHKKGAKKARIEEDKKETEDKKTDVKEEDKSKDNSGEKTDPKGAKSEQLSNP
UniProt Q6PDQ2: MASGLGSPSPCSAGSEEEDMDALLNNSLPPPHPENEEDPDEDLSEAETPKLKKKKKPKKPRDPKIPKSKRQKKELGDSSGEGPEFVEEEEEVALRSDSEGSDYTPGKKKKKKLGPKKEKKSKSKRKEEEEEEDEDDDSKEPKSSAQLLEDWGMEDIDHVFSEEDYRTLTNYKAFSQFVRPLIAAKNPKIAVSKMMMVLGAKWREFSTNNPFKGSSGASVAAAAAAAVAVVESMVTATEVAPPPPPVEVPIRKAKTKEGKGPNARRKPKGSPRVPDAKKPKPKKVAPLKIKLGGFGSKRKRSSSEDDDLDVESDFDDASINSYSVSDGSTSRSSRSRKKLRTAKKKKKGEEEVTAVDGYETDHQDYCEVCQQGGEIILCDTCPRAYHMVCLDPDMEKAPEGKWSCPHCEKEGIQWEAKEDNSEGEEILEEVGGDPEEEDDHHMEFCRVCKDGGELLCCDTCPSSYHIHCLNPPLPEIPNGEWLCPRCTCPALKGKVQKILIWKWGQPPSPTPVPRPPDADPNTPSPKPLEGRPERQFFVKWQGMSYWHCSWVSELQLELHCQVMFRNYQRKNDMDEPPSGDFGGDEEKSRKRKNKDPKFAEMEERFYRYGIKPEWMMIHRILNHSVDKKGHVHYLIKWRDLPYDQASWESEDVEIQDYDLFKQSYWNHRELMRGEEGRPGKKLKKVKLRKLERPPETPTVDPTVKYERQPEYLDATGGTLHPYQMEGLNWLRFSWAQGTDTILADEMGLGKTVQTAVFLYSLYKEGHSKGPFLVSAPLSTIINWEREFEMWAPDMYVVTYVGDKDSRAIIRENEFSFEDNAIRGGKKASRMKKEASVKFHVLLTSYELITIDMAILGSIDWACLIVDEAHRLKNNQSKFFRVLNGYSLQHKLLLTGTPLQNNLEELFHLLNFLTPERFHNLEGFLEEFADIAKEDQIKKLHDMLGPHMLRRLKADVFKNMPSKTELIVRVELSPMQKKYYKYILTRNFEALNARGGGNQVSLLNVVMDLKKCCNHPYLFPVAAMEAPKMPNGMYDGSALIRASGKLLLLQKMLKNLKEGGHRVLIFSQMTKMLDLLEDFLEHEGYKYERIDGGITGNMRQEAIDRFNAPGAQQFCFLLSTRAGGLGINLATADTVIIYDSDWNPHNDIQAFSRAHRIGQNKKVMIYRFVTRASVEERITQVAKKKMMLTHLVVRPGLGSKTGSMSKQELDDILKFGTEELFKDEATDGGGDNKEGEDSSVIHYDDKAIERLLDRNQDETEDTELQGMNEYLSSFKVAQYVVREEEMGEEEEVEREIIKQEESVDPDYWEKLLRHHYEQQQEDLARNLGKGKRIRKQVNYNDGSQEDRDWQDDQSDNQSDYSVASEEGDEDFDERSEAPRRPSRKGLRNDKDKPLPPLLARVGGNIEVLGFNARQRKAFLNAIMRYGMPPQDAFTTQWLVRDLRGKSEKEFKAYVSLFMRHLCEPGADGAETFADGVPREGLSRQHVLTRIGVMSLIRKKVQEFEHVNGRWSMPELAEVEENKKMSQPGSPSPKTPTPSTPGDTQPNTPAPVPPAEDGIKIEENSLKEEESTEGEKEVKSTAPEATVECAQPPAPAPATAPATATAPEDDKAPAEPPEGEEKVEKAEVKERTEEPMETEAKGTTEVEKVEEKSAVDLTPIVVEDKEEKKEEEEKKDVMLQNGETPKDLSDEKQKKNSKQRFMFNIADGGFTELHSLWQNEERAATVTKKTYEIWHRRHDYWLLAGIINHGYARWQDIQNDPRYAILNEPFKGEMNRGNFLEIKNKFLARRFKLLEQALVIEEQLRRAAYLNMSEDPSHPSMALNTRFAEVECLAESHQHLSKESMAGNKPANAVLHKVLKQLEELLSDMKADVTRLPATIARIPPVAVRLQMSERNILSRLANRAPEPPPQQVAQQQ
UniProt Q5DTM8: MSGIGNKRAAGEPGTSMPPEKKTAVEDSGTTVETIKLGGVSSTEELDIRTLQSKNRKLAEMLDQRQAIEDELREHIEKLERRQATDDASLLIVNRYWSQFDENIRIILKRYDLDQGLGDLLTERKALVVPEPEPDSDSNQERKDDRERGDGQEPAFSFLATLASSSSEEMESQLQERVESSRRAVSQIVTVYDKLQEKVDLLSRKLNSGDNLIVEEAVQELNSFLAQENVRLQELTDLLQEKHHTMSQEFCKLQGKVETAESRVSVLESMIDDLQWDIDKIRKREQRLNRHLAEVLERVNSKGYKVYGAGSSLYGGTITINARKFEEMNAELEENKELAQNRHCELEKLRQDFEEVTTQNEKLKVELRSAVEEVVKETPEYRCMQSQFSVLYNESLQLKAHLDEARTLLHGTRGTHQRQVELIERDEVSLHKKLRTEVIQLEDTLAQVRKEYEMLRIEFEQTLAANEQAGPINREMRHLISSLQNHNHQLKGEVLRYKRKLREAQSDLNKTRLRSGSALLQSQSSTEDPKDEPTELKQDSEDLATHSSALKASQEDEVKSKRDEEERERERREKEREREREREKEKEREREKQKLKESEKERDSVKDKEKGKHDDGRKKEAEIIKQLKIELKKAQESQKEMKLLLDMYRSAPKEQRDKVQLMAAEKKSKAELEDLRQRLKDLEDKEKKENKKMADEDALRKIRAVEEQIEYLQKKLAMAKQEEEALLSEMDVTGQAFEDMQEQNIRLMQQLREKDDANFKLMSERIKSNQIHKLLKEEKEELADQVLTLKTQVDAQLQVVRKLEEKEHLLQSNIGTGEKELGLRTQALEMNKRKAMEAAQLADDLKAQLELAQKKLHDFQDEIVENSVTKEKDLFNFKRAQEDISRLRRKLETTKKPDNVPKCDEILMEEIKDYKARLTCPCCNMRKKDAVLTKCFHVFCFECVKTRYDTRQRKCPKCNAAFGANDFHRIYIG

No constants are given. Whether binding was seen depends on the method and setting. Binding seen in cells or lysates may run through a third protein. Here binding means that the protein was enriched with, or labelled near, the bait; the list need not be complete.

For the test, the target named is Dmrta2 with an N-terminal 2x HA epitope (Dmrta2^2XHA knock-in allele) (mouse) (UniProt A2A9A2). Put plainly: affinity purification with mass spectrometry; RIME: E12.5 cortices of Dmrta2^2XHA and WT control embryos fixed in 1% formaldehyde, sonicated chromatin extract, anti-HA antibody on Protein G magnetic beads overnight at 4°C, RIPA washes (0.5 M LiCl), nano-LC-ESI-MS/MS.
For “HDAC1 (endogenous, embryonic cortex) (from UniProt O09106 1-482) (enzyme)”, the binding entry is listed as “binds”.
In the case of Zfp462 (from UniProt B1AWL2 1-2495), the binding entry is given as “binds”.
In the case of “Dmrt3 (endogenous, embryonic cortex) (from UniProt Q80WT2 1-476)” it was “binds”; in that of “HDAC2 (endogenous, embryonic cortex) (from UniProt P70288 1-488) (enzyme)”, “binds”.
In the case of CHD4 (from UniProt Q6PDQ2 1-1915) it was “binds”; in that of Dmrta1 (from UniProt Q8CFG4 1-490), “binds”.
In the case of “E3 ubiquitin ligase BRE1a (from UniProt Q5DTM8 1-973) (enzyme)” it was “binds”.
As to B1, the binding entry is reported as “binds”.
Take B2: the binding result is “binds”.

The values above are taken from PMC12186615.
